# These are yes or no findings as the source states them, for the method shown. Binding can be weak; no strength is given.
# B1: … (SEQ ID NO: 162) (peptide)
# peptide: EAYDIELNKW
# B2: … (SEQ ID NO: 114) (peptide)
# peptide: VEVNGVPRW
# B3: … (SEQ ID NO: 124) (peptide)
# peptide: NENLDYAIL
# B4: … (SEQ ID NO: 111) (peptide)
# peptide: QEIDQKRLEF
# B5: … (SEQ ID NO: 154) (peptide)
# peptide: NEAGEMIKHY
# B6: … (SEQ ID NO: 130) (peptide)
# peptide: REYQEVMNSKL
# B7: … (SEQ ID NO: 128) (peptide)
# peptide: TELTEARVQVW
# B8: … (SEQ ID NO: 141) (peptide)
# peptide: SEKWFRMGF
# B9: … (SEQ ID NO: 146) (peptide)
# peptide: MEELRMLSF
# B10: EKGLISAF (SEQ ID NO: 137) (peptide)
# peptide: EKGLISAF
# B11: … (SEQ ID NO: 138) (peptide)
# peptide: KEAPNIVTL
# B12: … (SEQ ID NO: 165) (peptide)
# peptide: EEIEAHIAL
# B13: … (SEQ ID NO: 148) (peptide)
# peptide: KESDAGRYY
# B14: … (SEQ ID NO: 149) (peptide)
# peptide: AETEPERHLG
# B15: … (SEQ ID NO: 103) (peptide)
# peptide: AELFLTKSF
# B16: … (SEQ ID NO: 129) (peptide)
# peptide: EEAMKRLSY
# B17: … (SEQ ID NO: 105) (peptide)
# peptide: EEIFKTLNY
# B18: DEINHQSL (SEQ ID NO: 123) (peptide)
# peptide: DEINHQSL
# B19: ELVHMINW (SEQ ID NO: 97) (peptide)
# peptide: ELVHMINW
# B20: … (SEQ ID NO: 133) (peptide)
# peptide: IEAPKLMVV
# B21: … (SEQ ID NO: 107) (peptide)
# peptide: YQENPRAAW
# B22: … (SEQ ID NO: 121) (peptide)
# peptide: YENIPVDKV
# B23: TELQIPSF (SEQ ID NO: 151) (peptide)
# peptide: TELQIPSF
# B24: … (SEQ ID NO: 144) (peptide)
# peptide: IEAYLERIGY
# B25: … (SEQ ID NO: 147) (peptide)
# peptide: RMLSFQQMTW
# B26: … (SEQ ID NO: 158) (peptide)
# peptide: VEEERYTGQW
# B27: … (SEQ ID NO: 2) (peptide)
# peptide: EEFLRPRSL
# B28: … (SEQ ID NO: 117) (peptide)
# peptide: SEVPVDSHY
# B29: EELRMLSF (SEQ ID NO: 145) (peptide)
# peptide: EELRMLSF
# B30: … (SEQ ID NO: 106) (peptide)
# peptide: SVISDSPRSW
# B31: … (SEQ ID NO: 164) (peptide)
# peptide: DEDGKIVGY
# B32: … (SEQ ID NO: 118) (peptide)
# peptide: SEVPVDSHYY
# B33: … (SEQ ID NO: 169) (peptide)
# peptide: KEHNSSVPWSS
# B34: … (SEQ ID NO: 119) (peptide)
# peptide: VEVKYEGHW
# B35: … (SEQ ID NO: 108) (peptide)
# peptide: QETNKVETY
# B36: … (SEQ ID NO: 150) (peptide)
# peptide: SEVFHVSEA
# B37: … (SEQ ID NO: 170) (peptide)
# peptide: REMFVFKDQW
# B38: … (SEQ ID NO: 131) (peptide)
# peptide: RESHLTEIRQY
# B39: … (SEQ ID NO: 99) (peptide)
# peptide: SECVKSLSF
# B40: … (SEQ ID NO: 115) (peptide)
# peptide: QEPFTRPVL
# B41: … (SEQ ID NO: 140) (peptide)
# peptide: TEHSGIYSC
# B42: … (SEQ ID NO: 4) (peptide)
# peptide: AEALGAAKKL
# B43: … (SEQ ID NO: 142) (peptide)
# peptide: QELFLHPVL
# B44: … (SEQ ID NO: 161) (peptide)
# peptide: GESSEVKAVL
# B45: … (SEQ ID NO: 136) (peptide)
# peptide: EEMPEEIHL
# B46: HENLIEDF (SEQ ID NO: 152) (peptide)
# peptide: HENLIEDF
# B47: … (SEQ ID NO: 125) (peptide)
# peptide: LEVLHQGQW
# B48: … (SEQ ID NO: 135) (peptide)
# peptide: QEIDRGQYI
# B49: … (SEQ ID NO: 143) (peptide)
# peptide: HEIIIRSHW
# B50: … (SEQ ID NO: 116) (peptide)
# peptide: AEANPRDLGASW
# B51: … (SEQ ID NO: 139) (peptide)
# peptide: AESDFSNNML
# B52: … (SEQ ID NO: 166) (peptide)
# peptide: EEQDFINNRY
# B53: … (SEQ ID NO: 168) (peptide)
# peptide: EEGPSVPKIY
# B54: … (SEQ ID NO: 1) (peptide)
# peptide: KEVDPASNTYTL
# B55: … (SEQ ID NO: 110) (peptide)
# peptide: EVEVGEVKSW
# B56: … (SEQ ID NO: 112) (peptide)
# peptide: AEIEADRSYQH
# B57: … (SEQ ID NO: 7) (peptide)
# peptide: SESDLVNFI
# B58: … (SEQ ID NO: 132) (peptide)
# peptide: AESFTSGRHYW
# B59: … (SEQ ID NO: 126) (peptide)
# peptide: SEASQSPQY
# B60: … (SEQ ID NO: 157) (peptide)
# peptide: SQDVAGTTF
# B61: … (SEQ ID NO: 98) (peptide)
# peptide: SEESAGPLL
# B62: … (SEQ ID NO: 160) (peptide)
# peptide: AEIATTGQLY
# B63: … (SEQ ID NO: 102) (peptide)
# peptide: TELADLDAAW
# B64: WEVVHTVF (SEQ ID NO: 171) (peptide)
# peptide: WEVVHTVF
# B65: … (SEQ ID NO: 101) (peptide)
# peptide: SEENTGKTY
# B66: … (SEQ ID NO: 6) (peptide)
# peptide: AELVGPVIPQDW
# B67: … (SEQ ID NO: 159) (peptide)
# peptide: EEVQDGKVI
# B68: … (SEQ ID NO: 113) (peptide)
# peptide: MEFKTLNKN
# B69: … (SEQ ID NO: 127) (peptide)
# peptide: RYFDENIQKFIW
# B70: … (SEQ ID NO: 163) (peptide)
# peptide: AEDEDGKIVGY
# B71: … (SEQ ID NO: 167) (peptide)
# peptide: AETENRYCV
# B72: … (SEQ ID NO: 3) (peptide)
# peptide: DEIFTNDRRW
# B73: … (SEQ ID NO: 134) (peptide)
# peptide: IEIKDRLQL
# B74: … (SEQ ID NO: 155) (peptide)
# peptide: TEDARHPESW
# B75: … (SEQ ID NO: 122) (peptide)
# peptide: GESVSWHLF
# B76: … (SEQ ID NO: 153) (peptide)
# peptide: IEIILLSGSL
# Molecular target: HLA-B*44:05 (human)
# Assay: UV peptide-exchange ELISA, yield grade
row,binding,Binder
1,binds,B1
2,binds,B2
3,binds,B3
4,binds,B4
5,binds,B5
6,binds,B6
7,binds,B7
8,binds,B8
9,binds,B9
10,binds,B10
11,binds,B11
12,binds,B12
13,binds,B13
14,binds,B14
15,binds,B15
16,binds,B16
17,binds,B17
18,binds,B18
19,binds,B19
20,binds,B20
21,binds,B21
22,binds,B22
23,binds,B23
24,binds,B24
25,binds,B25
26,binds,B26

row,binding,Binder
1,binds,B27
2,binds,B28
3,binds,B29
4,binds,B30
5,binds,B31
6,binds,B32
7,binds,B33
8,binds,B34
9,binds,B35
10,binds,B36
11,binds,B37
12,binds,B38
13,binds,B39
14,binds,B40
15,binds,B41
16,binds,B42
17,binds,B43
18,binds,B44
19,binds,B45
20,binds,B46
21,binds,B47
22,binds,B48
23,binds,B49
24,binds,B50
25,binds,B51
26,binds,B52

row,binding,Binder
1,binds,B53
2,binds,B54
3,binds,B55
4,binds,B56
5,binds,B57
6,binds,B58
7,binds,B59
8,binds,B60
9,binds,B61
10,binds,B62
11,binds,B63
12,binds,B64
13,binds,B65
14,binds,B66
15,binds,B67
16,binds,B68
17,binds,B69
18,binds,B70
19,binds,B71
20,binds,B72
21,binds,B73
22,binds,B74
23,binds,B75
24,binds,B76

# Reference: patent publication US20230287071A1
